Laboratory results from patent US7488791B2, “Mixture of peptides derived from E6 and/or E7 papillomavirus proteins and uses thereof” (priority 2001, dated 2009).
At least one peptide structure holds a part that was inferred or is arguable (an end, a ring closure or a residue). Some compounds share one wording; it may come from a single statement.

Columns and labels:
[1] = target: T1, HLA-DR1 molecule (DRB1*0101) (Homo sapiens, UniProt P01903+P01911, A100R/D57E/F55L/F60I/F76Y/I96L/L162R/M171V/P40L/Q125E/R42F/V115G/Y59C); format: binding
T1 construct: endogenous in cells
Experimental: (§1) The incubation conditions are specific to each HLA-DR molecule (incubation time, pH, reagent R1, concentration of HLA-DR or of peptide). […]
(§2) The HLA-DR molecules were purified from various homozygous EBV lines by immunoaffinity. The method described in Southwood et al. (24) can in particular be used. Their origin and the various alleles which characterize them are described in table IV.
(§3) The monomorphic antibody specific for the HLA-DR molecules is in particular that described in Southwood et al. (24) or that described in Posch et al. (25). The antibodies are purified from culture supernatants on protein A-sepharose columns. These antibodies are coupled to sepharose 4B or protein A-sepharose columns for purification of the HLA-DR molecules. • HLA-DR/Peptide Binding Assays
(§4) The assays for binding of the peptides to the HLA-DR molecules are competition assays with immuno-enzymatic revelation, initially developed by Hill on the HLA-DR molecule (26). They are carried out in 96-well plates, which makes it possible to study many samples in the same experiment. Briefly, the purified HLA-DR molecules are incubated with a biotinylated peptide which serves as a tracer and various concentrations of test peptide.
(§5) After incubation for 24 to 72 hours, these samples are neutralized, and then 100 μl of each sample are transferred onto an ELISA plate precoated with the HLA-DR molecule-specific monomorphic antibody.
(§6) The choice of the biotinylated peptides is the determining element of the assay specificity.
(§7) For each HLA-DRB1 molecule, the concentration of MHC II molecules, the concentration of the biotinylated peptide, the incubation pH and the incubation time were optimized as specified in table V below.

[2] = target: T2, HLA-DR11 molecule (DRB1*1101) (Homo sapiens, UniProt P01903+P01911, A100R/A169T/A87E/I96F/K41T/L162R/M171V/P40S/Q125H/Q178H/Q39Y/Q99D/R42S/S66Y/T262R/V115G/W38E); format: binding
T2 construct: endogenous in cells
Experimental: as §1, §2, §3, §4, §5, §6, §7

[3] = target: T3, HLA-DR15 molecule (DRB1*1501) (Homo sapiens, UniProt P01903+P01911); format: binding
T3 construct: endogenous in cells
Experimental: as §1, §2, §3, §4, §5, §6, §7

[4] = target: T4, HLA-DR3 molecule (DRB1*0301) (Homo sapiens, UniProt P01903+P01911, A100K/A102G/A103R/A169T/F55Y/I96L/K41T/L162R/M171V/P40S/Q125H/Q178H/Q39Y/R42S/S66N/T106N/T262R/W38E/Y61H); format: binding
T4 construct: endogenous in cells
Experimental: as §1, §2, §3, §4, §5, §6, §7

[5] = target: T5, HLA-DR4 molecule (DRB1*0401) (Homo sapiens, UniProt P01903+P01911, A100K/A169T/F76Y/I96L/K127E/L162R/M171V/N62H/P40V/Q125Y/R42H/S133A/S149N/S66Y/V115G/V209L/W38E); experiment: HLA-DR/peptide competition binding assay, DRB1*0401
T5 construct: endogenous in cells
Experimental: as §1, §2, §3
as §4, with “peptide. […]” for “peptide.”

[6] = target: HLA-DR13 molecule (DRB1*1301) (Homo sapiens, UniProt P01903+P01911, A100E/A169T/K41T/L162R/M171V/P40S/Q125H/Q178H/Q39Y/Q99D/R42S/S66N/T262R/W38E/Y61H); format: binding
Experimental: The incubation conditions are specific to each HLA-DR molecule (incubation time, pH, reagent R1, concentration of HLA-DR or of peptide).
(B1 21-36) (SEQ ID No. 5), specific for the allele DRB1*1301, • […]
as §2, §3
as §4, with “peptide. […]” for “peptide.”

[7] = target: T6, HLA-DRB4*0101 molecule (B4) (Homo sapiens, UniProt P01903+P13762, G164S); format: binding
T6 construct: endogenous in cells
Experimental: as §1, §2, §3, §4, §5
(§8) The alleles studied are the alleles most commonly encountered. They are the alleles HLA-DRB3*0101, HLA-DRB4*0101 and HLA-DRB5*0101.
as §6

[8] = target: T7, HLA-DRB5*0101 molecule (B5) (Homo sapiens, UniProt P01903+Q30154); format: binding
T7 construct: endogenous in cells
Experimental: as §1, §2, §3, §4, §5, §8, §6

[9] = target: HLA-DR7 molecule (DRB1*0701) (Homo sapiens, UniProt P01903+P01911, A100R/A102G/A103Q/D57E/D86V/E43K/F76Y/K127E/L162R/M171V/P40G/Q125H/Q99D/R33Q/R42Y/R54Q/S133A/S66F/T210M/V115G/Y107V/Y59L/Y89S); format: binding
Experimental: as §1, §2, §3, §4, §5, §6, §7

[10] = target: T8, HLA-DRB3*0101 molecule (B3) (Homo sapiens, UniProt P01903+P79483); format: binding
T8 construct: endogenous in cells
Experimental: as §1, §2, §3, §4, §5, §8, §6

CD4+ T lymphocytes = experiment: Proliferation assay ([3H]-thymidine incorporation) of PBMCs / cells from patients having bowenoid papulosis; format: cell-based, human; conditions: patient, DR 1501, DRB5
Experimental: A suspension of cells (PBMCs, CD8+ cell-depleted PBMCs, T lymphocytes pre-enriched by a step of culturing in vitro with the peptides selected according to the invention, or cloned T lymphocytes) is cultured for 3 to 5 days in the presence of the selected peptides and, as needed, of suitable presenting cells, such as dendritic cells, autologous or heterologous PBMCs, lymphoblastoid cells such as those obtained after infection with the EBV virus or genetically modified cells. The cell proliferation is measured by incorporation of tritiated thymidine into the DNA of the cells. The peptides selected in accordance with the invention make it possible to reveal, in the initial suspension, the presence of cells specific for these peptides. • as regards the ELISPOT assay:
To verify the stimulation of CD4+ T cell proliferation using immunogenic composition according to the invention, a proliferation assay is performed in vitro.
The cells (PBMCs) extracted from peripheral blood were cultured in 96-well microplates in a proportion of 2×10^5 cells per well, in a final volume of 200 μl of complete medium. The cells were or were not stimulated with 10 μg/ml of a mixture of peptides according to the invention. […] The cells were recovered and the [^3H]-thymidine incorporation was measured in a cellular DNA. […]

CC[C@H](C)[C@H](N)C(=O)N[C@@H](Cc1c[nH]cn1)C(=O)N[C@@H](CC(=O)O)C(=O)N[C@H](C(=O)N[C@H](C(=O)N[C@@H](CC(C)C)C(=O)N[C@@H](CCC(=O)O)C(=O)N[C@@H](CS)C(=O)N[C@H](C(=O)N[C@@H](Cc1ccc(O)cc1)C(=O)N[C@@H](CS)C(=O)N[C@@H](CCCCN)C(=O)N[C@@H](CCC(N)=O)C(=O)N[C@@H](CCC(N)=O)C(=O)N[C@@H](CC(C)C)C(=O)N[C@@H](CC(C)C)C(=O)N[C@@H](CCCNC(=N)N)C(=O)N[C@@H](CCCNC(=N)N)C(=O)N[C@@H](CCC(=O)O)C(=O)N[C@H](C(=O)N[C@@H](Cc1ccc(O)cc1)C(=O)O)C(C)C)C(C)C)[C@@H](C)CC)[C@@H](C)CC [E6/3]
good affinity: Binding to the DRB1*0101 molecule, in words [1] | Binding to the DRB1*1101 molecule, in words [2] | Binding to the DRB1*1501 molecule, in words [3] | Binding to the DRB1*0301 molecule, in words [4] | Binding to the DRB1*0401 molecule, in words [5] | Binding to the DRB1*1301 molecule, in words [6] | Binding to the DRB4*0101 molecule, in words [7] | Binding to the DRB5*0101 molecule, in words [8]

CC[C@H](C)[C@H](NC(=O)CNC(=O)[C@H](CC(C)C)NC(=O)[C@@H](NC(=O)CNC(=O)[C@H](CCSC)NC(=O)[C@H](CC(C)C)NC(=O)[C@H](CC(C)C)NC(=O)[C@H](CC(=O)O)NC(=O)[C@H](CCC(=O)O)NC(=O)[C@H](CC(C)C)NC(=O)[C@@H](N)[C@@H](C)O)[C@@H](C)O)C(=O)N[C@H](C(=O)N[C@@H](CS)C(=O)N1CCC[C@H]1C(=O)N[C@H](C(=O)N[C@@H](CS)C(=O)N[C@@H](CO)C(=O)N[C@@H](CCC(N)=O)C(=O)N[C@@H](CCCCN)C(=O)N1CCC[C@H]1C(=O)O)[C@@H](C)CC)C(C)C [E7/VIII]
good affinity: Binding to the DRB1*0101 molecule, in words [1] | Binding to the DRB1*1101 molecule, in words [2] | Binding to the DRB1*1501 molecule, in words [3] | Binding to the DRB1*0701 molecule, in words [9] | Binding to the DRB4*0101 molecule, in words [7] | Binding to the DRB5*0101 molecule, in words [8]

CC(C)C[C@H](NC(=O)[C@H](CCCNC(=N)N)NC(=O)[C@H](CC(C)C)NC(=O)[C@@H](NC(=O)[C@H](CO)NC(=O)[C@H](CC(=O)O)NC(=O)[C@H](CS)NC(=O)[C@@H](N)CCCCN)[C@@H](C)O)C(=O)N[C@@H](CS)C(=O)N[C@H](C(=O)N[C@@H](CCC(N)=O)C(=O)N[C@@H](CO)C(=O)N[C@H](C(=O)N[C@@H](Cc1c[nH]cn1)C(=O)N[C@H](C(=O)O)C(C)C)[C@@H](C)O)C(C)C [E7/VI]
good affinity: Binding to the DRB1*0701 molecule, in words [9] | Binding to the DRB5*0101 molecule, in words [8]

CC[C@H](C)[C@H](NC(=O)[C@H](CCCCN)NC(=O)[C@H](CO)NC(=O)[C@H](Cc1ccc(O)cc1)NC(=O)[C@H](Cc1ccccc1)NC(=O)[C@H](CCCCN)NC(=O)[C@H](CC(C)C)NC(=O)[C@H](CS)NC(=O)[C@H](CCCCN)NC(=O)[C@H](CC(=O)O)NC(=O)[C@H](CS)NC(=O)[C@@H](NC(=O)[C@H](C)NC(=O)[C@H](Cc1ccc(O)cc1)NC(=O)[C@@H]1CCCN1C(=O)[C@H](CC(N)=O)NC(=O)CNC(=O)[C@H](CC(=O)O)NC(=O)[C@H](CCCNC(=N)N)NC(=O)[C@@H](N)Cc1ccc(O)cc1)C(C)C)C(=O)O [E6/5]
weak: Prolif: peptide recognized, in terms of proliferation, by the CD4+ T lymphocytes (CD4+ T lymphocytes)
good affinity: Binding to the DRB1*1101 molecule, in words [2] | Binding to the DRB1*1501 molecule, in words [3] | Binding to the DRB1*0301 molecule, in words [4] | Binding to the DRB3*0101 molecule, in words [10] | Binding to the DRB5*0101 molecule, in words [8]
